# According to the supplement of paper PMC11732987, “Enantioselective OTUD7B fragment discovery through chemoproteomics screening and high-throughput optimisation” (Communications Chemistry, 2025):
# Amino acid sequences for entries named in this document (tags omitted). A change or cut given only in a name is not applied to a line headed by its entry. Residues count along the entry.
# UniProt Q5SVZ6, 13-37: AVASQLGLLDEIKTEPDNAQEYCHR
# UniProt Q96KM6: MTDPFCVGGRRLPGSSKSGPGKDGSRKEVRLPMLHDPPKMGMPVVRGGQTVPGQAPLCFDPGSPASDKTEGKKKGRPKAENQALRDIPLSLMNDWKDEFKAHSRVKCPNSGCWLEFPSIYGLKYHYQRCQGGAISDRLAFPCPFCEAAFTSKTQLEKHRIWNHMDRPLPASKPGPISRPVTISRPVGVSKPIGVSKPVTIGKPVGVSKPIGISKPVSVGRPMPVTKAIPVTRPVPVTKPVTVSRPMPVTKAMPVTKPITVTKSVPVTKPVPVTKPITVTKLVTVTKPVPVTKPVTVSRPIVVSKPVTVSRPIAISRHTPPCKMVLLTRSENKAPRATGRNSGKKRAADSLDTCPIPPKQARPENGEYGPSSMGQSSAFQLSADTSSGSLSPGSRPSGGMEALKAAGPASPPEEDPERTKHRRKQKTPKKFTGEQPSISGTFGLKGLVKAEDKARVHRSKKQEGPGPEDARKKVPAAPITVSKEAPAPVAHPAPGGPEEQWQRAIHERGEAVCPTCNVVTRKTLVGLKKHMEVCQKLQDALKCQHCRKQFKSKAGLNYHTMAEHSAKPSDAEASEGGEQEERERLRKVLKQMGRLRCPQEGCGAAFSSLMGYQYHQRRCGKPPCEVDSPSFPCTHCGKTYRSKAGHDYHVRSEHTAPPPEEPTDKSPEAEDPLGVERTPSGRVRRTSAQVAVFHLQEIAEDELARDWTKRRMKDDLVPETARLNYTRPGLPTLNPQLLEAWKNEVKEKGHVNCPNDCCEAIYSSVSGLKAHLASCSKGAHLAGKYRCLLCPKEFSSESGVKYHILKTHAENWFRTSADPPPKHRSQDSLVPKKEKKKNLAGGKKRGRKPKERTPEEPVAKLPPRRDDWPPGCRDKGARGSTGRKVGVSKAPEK
# UniProt Q5VUA4: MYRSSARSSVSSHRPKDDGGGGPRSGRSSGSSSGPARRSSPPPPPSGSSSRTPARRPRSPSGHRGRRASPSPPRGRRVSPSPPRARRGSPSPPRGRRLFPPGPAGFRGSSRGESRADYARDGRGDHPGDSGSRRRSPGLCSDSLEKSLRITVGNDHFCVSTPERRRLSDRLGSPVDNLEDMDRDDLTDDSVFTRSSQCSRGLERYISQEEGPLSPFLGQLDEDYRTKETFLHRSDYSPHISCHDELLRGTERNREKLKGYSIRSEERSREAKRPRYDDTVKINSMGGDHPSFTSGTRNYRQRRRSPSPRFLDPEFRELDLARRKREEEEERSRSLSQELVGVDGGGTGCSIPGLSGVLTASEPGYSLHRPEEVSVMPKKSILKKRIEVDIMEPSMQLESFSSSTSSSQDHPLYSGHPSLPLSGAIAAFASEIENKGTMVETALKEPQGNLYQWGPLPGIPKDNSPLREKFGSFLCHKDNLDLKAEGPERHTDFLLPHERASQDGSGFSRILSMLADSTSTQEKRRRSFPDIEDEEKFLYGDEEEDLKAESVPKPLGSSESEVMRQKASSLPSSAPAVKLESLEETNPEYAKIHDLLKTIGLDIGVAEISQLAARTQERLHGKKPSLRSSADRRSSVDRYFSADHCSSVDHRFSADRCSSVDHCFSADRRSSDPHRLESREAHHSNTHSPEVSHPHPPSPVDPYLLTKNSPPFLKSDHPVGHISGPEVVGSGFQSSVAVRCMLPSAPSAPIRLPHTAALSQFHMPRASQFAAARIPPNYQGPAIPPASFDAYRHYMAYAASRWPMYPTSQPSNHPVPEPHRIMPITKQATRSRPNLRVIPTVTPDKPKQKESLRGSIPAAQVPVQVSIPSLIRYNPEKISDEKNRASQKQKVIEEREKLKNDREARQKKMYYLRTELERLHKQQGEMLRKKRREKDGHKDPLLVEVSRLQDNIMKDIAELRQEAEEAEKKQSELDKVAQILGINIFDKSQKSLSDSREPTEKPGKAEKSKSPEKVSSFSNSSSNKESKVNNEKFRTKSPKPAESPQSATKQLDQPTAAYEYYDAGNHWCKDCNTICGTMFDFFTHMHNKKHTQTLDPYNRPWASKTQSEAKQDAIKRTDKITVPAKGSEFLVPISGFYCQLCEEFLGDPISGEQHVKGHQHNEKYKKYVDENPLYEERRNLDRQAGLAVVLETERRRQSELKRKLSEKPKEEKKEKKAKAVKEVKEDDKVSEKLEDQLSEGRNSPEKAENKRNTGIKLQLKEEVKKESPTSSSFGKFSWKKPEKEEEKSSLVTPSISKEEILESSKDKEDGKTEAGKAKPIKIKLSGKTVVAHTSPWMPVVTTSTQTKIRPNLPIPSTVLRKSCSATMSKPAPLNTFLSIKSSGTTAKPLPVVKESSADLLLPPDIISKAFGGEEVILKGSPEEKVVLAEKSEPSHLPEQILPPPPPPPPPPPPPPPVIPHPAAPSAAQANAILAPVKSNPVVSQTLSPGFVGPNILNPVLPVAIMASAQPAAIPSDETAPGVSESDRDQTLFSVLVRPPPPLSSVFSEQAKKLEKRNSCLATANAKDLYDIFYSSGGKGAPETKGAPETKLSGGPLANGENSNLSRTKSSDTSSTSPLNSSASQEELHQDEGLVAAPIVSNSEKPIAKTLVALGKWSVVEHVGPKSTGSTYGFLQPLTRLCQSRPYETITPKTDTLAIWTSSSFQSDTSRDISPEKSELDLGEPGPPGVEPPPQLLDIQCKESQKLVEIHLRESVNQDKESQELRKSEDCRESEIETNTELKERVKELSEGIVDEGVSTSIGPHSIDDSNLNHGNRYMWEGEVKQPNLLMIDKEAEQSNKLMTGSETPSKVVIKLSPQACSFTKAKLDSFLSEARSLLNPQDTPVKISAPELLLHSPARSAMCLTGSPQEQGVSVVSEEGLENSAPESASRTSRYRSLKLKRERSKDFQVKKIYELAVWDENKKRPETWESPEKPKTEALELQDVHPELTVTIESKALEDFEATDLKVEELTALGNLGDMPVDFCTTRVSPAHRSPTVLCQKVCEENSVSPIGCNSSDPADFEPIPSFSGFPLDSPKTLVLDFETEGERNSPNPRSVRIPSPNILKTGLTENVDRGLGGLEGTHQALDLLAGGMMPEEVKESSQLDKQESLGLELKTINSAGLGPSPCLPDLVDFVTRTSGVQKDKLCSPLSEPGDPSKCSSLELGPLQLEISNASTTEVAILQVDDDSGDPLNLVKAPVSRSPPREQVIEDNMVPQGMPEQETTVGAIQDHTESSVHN
# UniProt Q7Z3T8: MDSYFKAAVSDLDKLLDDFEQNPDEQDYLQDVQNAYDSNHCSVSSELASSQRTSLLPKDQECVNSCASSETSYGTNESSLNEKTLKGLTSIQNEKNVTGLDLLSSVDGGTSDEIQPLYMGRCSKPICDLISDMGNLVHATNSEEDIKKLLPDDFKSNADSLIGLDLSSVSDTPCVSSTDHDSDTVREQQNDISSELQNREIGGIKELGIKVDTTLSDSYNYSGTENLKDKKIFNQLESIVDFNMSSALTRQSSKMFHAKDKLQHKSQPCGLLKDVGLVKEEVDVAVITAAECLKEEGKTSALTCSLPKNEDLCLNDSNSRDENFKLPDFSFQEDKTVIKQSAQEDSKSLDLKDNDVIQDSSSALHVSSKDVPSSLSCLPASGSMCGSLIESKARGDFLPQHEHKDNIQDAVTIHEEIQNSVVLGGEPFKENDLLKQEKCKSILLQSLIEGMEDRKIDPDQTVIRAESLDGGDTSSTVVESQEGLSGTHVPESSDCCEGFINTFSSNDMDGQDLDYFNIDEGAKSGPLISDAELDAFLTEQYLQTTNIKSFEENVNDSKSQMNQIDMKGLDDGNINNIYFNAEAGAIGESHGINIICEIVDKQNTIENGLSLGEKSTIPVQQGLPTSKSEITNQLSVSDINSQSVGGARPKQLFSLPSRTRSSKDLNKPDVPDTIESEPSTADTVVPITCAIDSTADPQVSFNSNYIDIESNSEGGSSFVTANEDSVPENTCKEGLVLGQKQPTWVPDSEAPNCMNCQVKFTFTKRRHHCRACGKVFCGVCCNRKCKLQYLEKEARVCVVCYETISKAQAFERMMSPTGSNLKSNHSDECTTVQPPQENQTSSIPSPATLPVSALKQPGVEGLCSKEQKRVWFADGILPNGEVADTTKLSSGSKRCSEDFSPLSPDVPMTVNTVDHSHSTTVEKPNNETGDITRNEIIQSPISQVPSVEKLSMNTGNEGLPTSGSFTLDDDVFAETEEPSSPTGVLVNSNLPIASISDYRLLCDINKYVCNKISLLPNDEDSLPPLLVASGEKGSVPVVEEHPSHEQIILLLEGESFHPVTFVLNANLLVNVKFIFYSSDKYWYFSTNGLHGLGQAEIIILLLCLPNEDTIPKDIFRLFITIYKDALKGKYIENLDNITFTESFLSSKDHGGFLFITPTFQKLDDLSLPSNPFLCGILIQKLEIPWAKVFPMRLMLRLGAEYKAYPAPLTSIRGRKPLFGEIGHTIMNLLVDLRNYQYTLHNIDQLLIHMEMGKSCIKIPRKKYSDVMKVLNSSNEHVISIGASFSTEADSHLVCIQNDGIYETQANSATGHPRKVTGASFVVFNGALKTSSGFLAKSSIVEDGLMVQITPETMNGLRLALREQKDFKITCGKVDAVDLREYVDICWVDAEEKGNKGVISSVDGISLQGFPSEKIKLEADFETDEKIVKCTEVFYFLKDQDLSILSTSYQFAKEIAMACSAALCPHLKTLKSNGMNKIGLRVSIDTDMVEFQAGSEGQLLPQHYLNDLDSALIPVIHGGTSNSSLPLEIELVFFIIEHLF
# UniProt Q8TCF1: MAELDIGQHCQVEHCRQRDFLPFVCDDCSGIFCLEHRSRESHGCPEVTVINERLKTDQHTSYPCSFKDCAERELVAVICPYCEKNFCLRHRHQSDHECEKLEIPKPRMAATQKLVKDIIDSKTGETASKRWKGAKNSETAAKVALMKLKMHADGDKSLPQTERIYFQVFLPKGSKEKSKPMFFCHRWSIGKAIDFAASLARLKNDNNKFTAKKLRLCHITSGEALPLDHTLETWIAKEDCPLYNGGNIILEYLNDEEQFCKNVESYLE
# UniProt Q8TCN5: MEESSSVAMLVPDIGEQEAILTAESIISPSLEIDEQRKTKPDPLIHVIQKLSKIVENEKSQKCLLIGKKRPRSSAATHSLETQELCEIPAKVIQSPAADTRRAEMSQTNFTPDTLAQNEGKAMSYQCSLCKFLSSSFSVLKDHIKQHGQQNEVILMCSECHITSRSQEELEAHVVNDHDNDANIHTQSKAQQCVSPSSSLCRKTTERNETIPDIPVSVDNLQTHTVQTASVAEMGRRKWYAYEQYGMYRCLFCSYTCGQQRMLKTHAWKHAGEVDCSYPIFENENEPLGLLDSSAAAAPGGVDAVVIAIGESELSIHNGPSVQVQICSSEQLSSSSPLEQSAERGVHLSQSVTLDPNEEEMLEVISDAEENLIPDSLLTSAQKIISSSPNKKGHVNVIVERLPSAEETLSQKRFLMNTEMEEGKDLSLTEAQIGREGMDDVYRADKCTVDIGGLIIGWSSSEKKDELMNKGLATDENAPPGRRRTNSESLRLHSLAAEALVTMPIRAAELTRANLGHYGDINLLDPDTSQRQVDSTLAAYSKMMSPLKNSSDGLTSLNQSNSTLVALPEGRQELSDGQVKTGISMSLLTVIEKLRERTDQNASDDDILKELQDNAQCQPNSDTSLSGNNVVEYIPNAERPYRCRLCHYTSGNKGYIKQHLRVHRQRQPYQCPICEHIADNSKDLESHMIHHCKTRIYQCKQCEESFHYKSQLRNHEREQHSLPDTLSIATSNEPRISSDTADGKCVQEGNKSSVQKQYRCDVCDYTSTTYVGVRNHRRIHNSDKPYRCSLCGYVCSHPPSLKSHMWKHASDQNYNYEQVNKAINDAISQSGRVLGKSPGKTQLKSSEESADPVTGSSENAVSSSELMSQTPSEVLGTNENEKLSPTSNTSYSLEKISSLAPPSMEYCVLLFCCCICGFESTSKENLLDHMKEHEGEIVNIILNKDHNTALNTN
# UniProt Q5BKZ1: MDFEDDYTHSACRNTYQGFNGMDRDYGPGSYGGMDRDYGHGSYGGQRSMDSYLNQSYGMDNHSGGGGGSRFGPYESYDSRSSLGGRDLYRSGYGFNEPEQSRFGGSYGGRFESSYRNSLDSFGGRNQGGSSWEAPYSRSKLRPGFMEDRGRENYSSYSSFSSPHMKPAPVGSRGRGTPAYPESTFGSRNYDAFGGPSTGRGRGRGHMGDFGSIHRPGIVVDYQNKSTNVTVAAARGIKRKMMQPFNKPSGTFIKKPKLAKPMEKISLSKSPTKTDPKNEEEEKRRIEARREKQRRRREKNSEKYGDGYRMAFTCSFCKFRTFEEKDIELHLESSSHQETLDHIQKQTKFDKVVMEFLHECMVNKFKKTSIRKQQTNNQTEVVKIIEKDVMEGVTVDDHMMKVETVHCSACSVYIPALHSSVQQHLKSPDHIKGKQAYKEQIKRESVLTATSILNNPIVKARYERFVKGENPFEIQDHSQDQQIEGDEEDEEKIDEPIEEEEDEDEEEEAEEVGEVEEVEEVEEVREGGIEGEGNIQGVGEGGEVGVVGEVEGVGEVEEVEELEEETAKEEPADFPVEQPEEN
# UniProt Q9H4I2, 582-601: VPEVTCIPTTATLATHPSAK
# The other results are listed elsewhere or left out. The data scatter; read single values as rough.
# How the values were obtained:
# [1] = compound: ClCC(=O)N[C@@H]1CCCc2ccccc12; assay: log2 mean competition ratio of IA-DTB cysteine labelling (DMSO/compound) (log2 ratio); higher = stronger cysteine engagement by compound; conditions: treatment time: 4 h, cell line lysate: HEK293T
# Description: (§1)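 IA-DTB competitive cysteine chemoproteomics in HEK293T RIPA lysate. Lysates were treated with compound 29 or 30 at 50 or 200 µM for 4 h, then IA-DTB (500 µM, 1 h), trypsin-digested, NeutrAvidin-enriched and analysed by diaPASEF. Competition ratio = intensity DMSO / intensity compound (n=4 treated, n=64 DMSO); binding: mean log2 CR ≥ 1 and p ≤ 0.05 plus QC filters. Target is the cysteine site.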
# [2] = compound: ClCC(=O)N[C@H]1CCCc2ccccc12; assay: as above; conditions: treatment time: 4 h, cell line lysate: HEK293T
# Description: as §1
Target,log2 mean competition ratio ([1]; 50 µM),log2 mean competition ratio ([1]; 200 µM),log2 mean competition ratio ([2]; 50 µM),log2 mean competition ratio ([2]; 200 µM)
ZMYM4 C1232 (UniProt Q5VZL5),0.0258,0.138,-0.108,-0.115
ZMYM1 C35 (UniProt Q5SVZ6),-0.204,0.623,0.153,-0.0517
ZNF512B C533 (UniProt Q96KM6),-0.273,-0.255,-0.27,-0.199
ZUP1 C360 (UniProt Q96AP4),0.197,-0.193,-0.185,-0.166
ZNF318 C158 (UniProt Q5VUA4),-0.178,0.176,-0.553,0.00486
"ZNF654 C45, A0A1B0GWA0",0.14,0.0809,-0.228,-0.0334
ZNF512B C871 (UniProt Q96KM6),-0.163,0.0465,0.0616,-0.0262
ZFYVE16 C1002 (UniProt Q7Z3T8),-0.113,0.061,0.0191,0.177
ZFAND5 C76 (UniProt O76080),-0.106,-0.0589,-0.206,-0.0152
ZNF516 C1016 (UniProt Q92618),0.0662,0.0563,0.354,-0.0754
ZFAND1 C184 (UniProt Q8TCF1),0.457,-0.0404,0.299,-0.132
ZNF507 C745 (UniProt Q8TCN5),-0.159,0.0723,-0.0682,0.289
ZNF829 C252,-0.0388,0.321,-0.114,-0.233
ZEB1 C503 (UniProt P37275),-0.0377,0.248,-0.0382,0.253
ZNF644 C1233 (UniProt Q9H582),0.272,0.319,0.341,0.406
ZNF747 C108,-0.311,0.0581,-0.65,0.205

# Some of the entries above in a different format:
Target | log2 mean competition ratio ([1]; 50 µM) | log2 mean competition ratio ([1]; 200 µM) | log2 mean competition ratio ([2]; 50 µM) | log2 mean competition ratio ([2]; 200 µM)
ZFYVE16 C1002 (UniProt Q7Z3T8) | -0.113 | 0.061 | 0.0191 | 0.177
ZFAND5 C76 (UniProt O76080) | -0.106 | -0.0589 | -0.206 | -0.0152

# (list continues)

Target,log2 mean competition ratio ([1]; 50 µM),log2 mean competition ratio ([1]; 200 µM),log2 mean competition ratio ([2]; 50 µM),log2 mean competition ratio ([2]; 200 µM)
ZNHIT1 C140 (UniProt O43257),0.0375,-0.148,-0.0974,0.00785
ZNF592 C463 (UniProt Q92610),-0.0603,-0.0041,0.0611,-0.118
ZNF664 C131,0.41,-0.0166,0.251,-0.197
ZNF326 C12 (UniProt Q5BKZ1),-0.109,0.739,0.119,0.658
ZHX3 C587 (UniProt Q9H4I2),0.113,-0.0906,-0.167,-0.166
ZRSR2P1;ZRSR2 C177;(C172),-0.142,-0.00379,0.444,0.18
ZFP62 C43,0.0799,-0.127,-0.182,-0.0299
ZNF205 C197,0.255,-0.236,0.0466,-0.0127
ZNF827 C485,-0.123,-0.171,0.0836,0.0267
ZNF318 C2188 (UniProt Q5VUA4),-0.139,0.399,-0.00826,0.351
ZFYVE16 C304 (UniProt Q7Z3T8),0.00173,0.0453,0.443,0.237
ZNF598 C835 (UniProt Q86UK7),-0.365,0.283,0.357,0.481
ZNF496 C324,-0.126,-0.0238,-0.131,-0.131
ZNF592 C265 (UniProt Q92610),-0.214,-0.0508,0.316,-0.11
ZNF445 C365 (UniProt P59923),-0.0953,0.266,-0.718,0.246
